No constants are given. Whether binding was seen depends on the method and setting. Binding seen in cells or lysates may run through a third protein. Some results given as binding are weak or reduced against the parent protein; the word gives no strength. Where a sequence is shown, tags or fusion partners need not be part of it.
Molecular target: c-myc tagged full length Lum (pSecTag-Lum-c-myc) (UniProt P51885)
Test: co-IP; HEK293 cells co-transfected with ALK5-flag and Lum-myc, LumN288-myc or LumC50-myc; 0.5 mg/ml DSP on ice for 45 min; lysis in 50 mM Tris/HCl pH 7.4, 150 mM NaCl, 1% Triton X100; anti-c-myc Sepharose beads, eluted with c-myc peptide; blots with anti-flag and anti-c-myc

Protein sequences, listed by entry. Tags and fused reporters are not part of them. Residues count along the entry.
UniProt P51885, residues 19-338: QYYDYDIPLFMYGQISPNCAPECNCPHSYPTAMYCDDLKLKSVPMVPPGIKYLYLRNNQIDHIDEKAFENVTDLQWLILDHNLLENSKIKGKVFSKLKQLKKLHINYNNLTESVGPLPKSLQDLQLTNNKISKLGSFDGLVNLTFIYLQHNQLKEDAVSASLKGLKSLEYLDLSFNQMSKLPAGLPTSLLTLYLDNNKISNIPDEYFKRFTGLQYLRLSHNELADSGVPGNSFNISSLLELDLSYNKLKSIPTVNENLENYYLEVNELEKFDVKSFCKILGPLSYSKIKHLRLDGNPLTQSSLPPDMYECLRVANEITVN

binding: binds
B1: ALK5-Flag (transforming growth factor-β receptor 1, TGFBR1) (receptor, UniProt P36897 34-503)
chain: LQCFCHLCTKDNFTCVTDGLCFVSVTETTDKVIHNSMCIAEIDLIPRDRPFVCAPSSKTGSVTTTYCCNQDHCNKIELPTTVKSSPGLGPVELAAVIAGPVCFVCISLMLMVYICHNRTVIHHRVPNEEDPSLDRPFISEGTTLKDLIYDMTTSGSGSGLPLLVQRTIARTIVLQESIGKGRFGEVWRGKWRGEEVAVKIFSSREERSWFREAEIYQTVMLRHENILGFIAADNKDNGTWTQLWLVSDYHEHGSLFDYLNRYTVTVEGMIKLALSTASGLAHLHMEIVGTQGKPAIAHRDLKSKNILVKKNGTCCIADLGLAVRHDSATDTIDIAPNHRVGTKRYMAPEVLDDSINMKHFESFKRADIYAMGLVFWEIARRCSIGGIHEDYQLPYYDLVPSDPSVEEMRKVVCEQKLRPNIPNRWQSCEALRVMAKIMRECWYANGAARLTALRIKKTLSQLSQQEGIKM

From article PMC3867403
